Laboratory results taken from PubChem BioAssay AID2685 (National Center for Advancing Translational Sciences (NCATS), 2010).
The other results are listed elsewhere or left out. The main result of the screen is listed elsewhere. These columns were measured beside it and carry no call. Compounds called inactive in the main read-out are mostly missing here. Potencies come from curve fits of mixed quality, noted in brackets.

Assay: qHTS Assay for Lipid Storage Modulators in Drosophila S3 Cells;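 for cell number change: cells counted by Cell Tracker Red CMTPX staining in the red channel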
Details: BODIPY lipid droplet fluorescence, 18-24 h; for cell number change: measured here: cell count max response, cells fed with added oleic acid
Method in brief: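 Drosophila S3 cells loaded with oleic acid (400 uM, as added) and compounds at several concentrations; lipid droplets imaged by 488-nm laser-scanning cytometry, 500–530 nm intensity and object ratio to cell channel. Percent activity normalized to 20 uM Triacsin C.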

[1] = measured here: lipid fluorescence (Fed channel) AC50, cells fed with added oleic acid
[2] = measured here: cell number channel AC50, cells fed with added oleic acid

SMILES	cell number change [%]	AC50 [1]	AC50 [2]
COCCN(C(=O)CSc1cc(C)c2ccccc2n1)c1c(N)n(CC(C)C)c(=O)[nH]c1=O	-0.775	6.51 µM [rising, single point]	
O=C(CSc1nnc(-c2ccc(Cl)s2)o1)N1CCOCC1	-8.82	16.4 µM [rising, single point]	
COC(=O)c1cc(Br)c(=O)n(Cc2ccc(OC)c(OC)c2)c1	9.55	0.651 µM [rising, partial curve]	
CCOC(=O)c1cc2c(=O)n3cccc(C)c3nc2n(CC(C)C)c1=NC(=O)c1ccco1	4.01	0.259 µM [falling, partial curve]	0.517 µM [falling, full curve]
CCC(OCC(O)CN1CCCCC1)c1ccccc1 (stereo unspecified)	26		
O=C(Cc1cccc2ccccc12)NNC(=O)Nc1ccc(Cl)cc1	-6.89		
Fc1ccccc1/C=C1\CCCC2=C1Nc1ncnn1C2c1ccccc1F (stereo unspecified)	-57.5	32.6 µM [falling, partial curve]	25.9 µM [falling, partial curve, poor fit]
CCOC(=O)C1=C(C)N(C)C(=O)NC1c1c(C)nn(-c2ccccc2)c1C (stereo unspecified)	-6.79		
CN1C(=O)CC(N2CCC(c3nc4ccccc4[nH]3)CC2)C1=O (stereo unspecified)	5.57	3.66 µM [rising, single point]	
OC(CN1CCOCC1)c1ccc(F)cc1 (stereo unspecified)	-27.1	0.82 µM [falling, full curve, poor fit]	
Oc1ccccc1-c1cc(-c2ccc(F)cc2)n[nH]1	-31	29.1 µM [falling, single point]	32.6 µM [falling, single point]
COc1ccc(CCNC(=O)C(C)SCc2ccccc2)cc1 (stereo unspecified)	6.75		
Cn1c(N)cc(=O)n(Cc2ccccc2)c1=O	3.02	3.26 µM [rising, full curve, poor fit]	
Cc1cc(CSc2ccccc2)ccc1NC(=O)c1ccc(C)c([N+](=O)[O-])c1	4.89		
Cc1ccc(-c2cc(-c3ccc(F)cc3)n[nH]2)c(O)c1	-51.6	16.4 µM [falling, partial curve]	16.4 µM [falling, partial curve]
CCOc1cc(N2CCOCC2)c(OCC)cc1NC(=O)Cn1nc(C)c([N+](=O)[O-])c1C	1.88	1.16 µM [rising, partial curve, poor fit]	
O=C1CCCC2=C1C(c1ccncc1)n1c(nc3ccccc31)N2 (stereo unspecified)	120		25.9 µM [rising, single point]
Cc1cc(C)c(C(=O)CSc2n[nH]c(=O)n2C2CC2)cc1C	44.4	9.2 µM [rising, partial curve]	8.2 µM [rising, partial curve]
S=C1NC(c2ccccc2)=NCN1c1ccc(Cl)cc1	22.3	1.64 µM [rising, partial curve]	
COc1ccc(CCNC(=O)COC(=O)Cn2cnc3ccccc32)cc1OC		18.4 µM [rising, single point]	

SMILES	cell number change [%]	AC50 [1]	AC50 [2]
CN(C)c1ccc(C(=O)OCC(=O)Nc2ccc(S(N)(=O)=O)cc2)cc1	-31.8	0.00461 µM [falling, full curve, poor fit]	0.103 µM [falling, full curve, poor fit]
COC(=O)c1ccccc1NC(=O)C1CC(c2ccc(F)cc2)=NO1 (stereo unspecified)	-45.4		
CCOc1ccc2nc(-c3ccccc3)nc(SCC(=O)Nc3ncc(C)s3)c2c1	81	0.517 µM [rising, full curve]	1.46 µM [rising, full curve]
CCC(Sc1nnnn1C)C(=O)Nc1ccc(C(C)=O)cc1 (stereo unspecified)	-3.86	5.17 µM [falling, single point]	
CCC1CCCCN1CCNC(=O)CCS(=O)(=O)c1ccc(Br)cc1 (stereo unspecified)	-19.6	2.31 µM [falling, full curve]	
Fc1ccccc1N1CCN(C(c2ccncc2)c2nnnn2C2CCCC2)CC1 (stereo unspecified)	-12.2		
CCCCN(C)Cc1c(C)[nH]c2ccc(Cl)cc2c1=O		1.46 µM [falling, partial curve]	
CCOC(=O)c1sc2nc(C3CC3)cc(-c3ccc(F)cc3)c2c1N	-22.1		
Cc1cc(=O)n2nc(N3CCCC3C(=O)Nc3ccc(C(C)C)cc3)sc2n1 (stereo unspecified)	12.1	0.164 µM [falling, full curve, poor fit]	
CCOc1ccccc1Nc1ccc(C(=O)O)cc1NC(C)=O	18.8	16.4 µM [rising, partial curve]	
COc1cc(CC(=O)OCc2cccc([N+](=O)[O-])c2)cc(OC)c1OC	20.6		
O=C(CSC1=N/C(=C/c2ccco2)C(=O)N1c1ccc(OC(F)F)cc1)NC1CCS(=O)(=O)C1 (stereo unspecified)	78		7.31 µM [rising, partial curve]
Cc1cc(Oc2ccc(=O)n(C)n2)nc(SCc2ccccc2)n1	57.9	0.00517 µM [falling, full curve, poor fit]	23.1 µM [rising, single point]
O=C(CN1CCCCC1)Nc1nc(-c2ccc(F)c(F)c2)cs1	21.8	9.2 µM [rising, partial curve]	
Cc1ccccc1-c1noc(-c2ccccc2F)n1		1.46 µM [rising, partial curve]	1.46 µM [rising, partial curve]
CC(=O)NC(CC(=O)Nc1nc(-c2ccc(N(C)S(C)(=O)=O)cc2)cs1)c1ccccc1 (stereo unspecified)	-2.94	6.51 µM [falling, single point]	
Nc1cc(N)nc(SCC(=O)Nc2ccccc2N2CCOCC2)n1	17.2	8.2 µM [rising, partial curve]	
Cc1ccc(S(=O)(=O)N2CCOCC2)cc1NC(=O)COC(=O)c1ccccc1OCc1c(C)noc1C	-83.3		29.1 µM [falling, partial curve, poor fit]
CCCCOCCCNC(=O)c1ccc(OCC)cc1	-10.3	25.9 µM [rising, single point]	
COc1ccc(NC(=O)/C=C/c2cccc(C(F)(F)F)c2)cn1	17.5		

In a second layout: results already given
SMILES,cell number change [%],AC50 [1],AC50 [2]
COc1cc(CC(=O)OCc2cccc([N+](=O)[O-])c2)cc(OC)c1OC,20.6,,
O=C(CSC1=N/C(=C/c2ccco2)C(=O)N1c1ccc(OC(F)F)cc1)NC1CCS(=O)(=O)C1 (stereo unspecified),78,,"7.31 µM [rising, partial curve]"
Cc1cc(Oc2ccc(=O)n(C)n2)nc(SCc2ccccc2)n1,57.9,"0.00517 µM [falling, full curve, poor fit]","23.1 µM [rising, single point]"

(continued)

SMILES	cell number change [%]	AC50 [1]	AC50 [2]
CC(=O)c1ccc(N2CCN(C(=O)c3noc4c3CSc3ccccc3-4)CC2)cc1	-3.06	10.3 µM [rising, partial curve]	
NC(=O)COC(=O)C1c2ccccc2Oc2ccccc21	-24.3	4.11 µM [falling, single point]	
CCn1cc(C(=O)OCC(=O)N2C(C)CCCC2C)c(=O)c2ccc(C)nc21 (stereo unspecified)		0.116 µM [rising, full curve, poor fit]	0.184 µM [rising, full curve, poor fit]
CN(CC(=O)NC(=O)NC1CCCCC1)CC(=O)Nc1ccc(OC(F)(F)F)cc1	-1.76		4.11 µM [falling, single point]
O=C(CC(O)(c1ccccc1)C(F)(F)F)c1cccs1 (stereo unspecified)		6.51 µM [falling, single point]	6.51 µM [falling, single point]
O=C(c1ccc(Cl)cc1)N1CCC(C(=O)N2CCN(c3ncccn3)CC2)CC1	-8.6		
CC(=O)C1(C)OC(N)=C(C#N)C(c2ccccc2)C1(C#N)C#N (stereo unspecified)	121	1.64 µM [rising, partial curve]	14.6 µM [rising, partial curve]
CC(/C=C/c1ccc(N(C)C)cc1)=N\N=C(/N)SC1CC(=O)N(c2ccc(C(=O)O)cc2)C1=O (stereo unspecified)	9.99	0.00461 µM [rising, full curve, poor fit]	
CSc1ncc(Cl)c(C(=O)Nc2ccccc2Br)n1	33.1		29.1 µM [rising, single point]
Nc1cc2ccncc2c2ccccc12	3.66	2.31 µM [rising, single point]	
COc1ccc(-c2nnc(Nc3ccc(CC(N)=O)cc3)c3ccccc23)cc1	-13.8	23.1 µM [falling, partial curve, poor fit]	
Cc1ccc(NC(=O)Cc2nnc(SCC(=O)Nc3nncs3)n2C)cc1	24.8		
COc1cccc(C(=O)COc2ccccc2-c2ccccc2)c1	15	8.2 µM [rising, partial curve, poor fit]	
Cc1nn(-c2ccccc2)c2c1C(O)CC(C)(C)C2 (stereo unspecified)	-13.5	20.6 µM [rising, single point]	
CC(c1ccccc1)C1C(C#N)=C(N)SC(N)=C1C#N (stereo unspecified)	-21.4	18.4 µM [rising, single point]	
CCOC(=O)C(=NC1CCCCC1)NNc1cccc(C(F)(F)F)c1	-22.1		
Clc1cnc(N/N=C/c2ccco2)c(Cl)c1	83.3	4.61 µM [rising, full curve, poor fit]	6.51 µM [falling, single point]
Cc1noc(C)c1COc1ccc(C(=O)N2CC(C)CC(C)C2)cc1 (stereo unspecified)	-3.76	0.00411 µM [rising, full curve, poor fit]	
COC(=O)c1cccc(C23CC4(C2)[C@H](CN(Cc2ccc(C(F)(F)F)cc2)[C@@H]4c2ccccc2)C3c2ccc(C(F)(F)F)cc2)c1 (stereo partly specified)	36.7	8.2 µM [rising, partial curve, poor fit]	29.1 µM [rising, single point]
O=C(NCc1ccc(F)cc1)c1ccc(S(=O)(=O)Nc2cccc(C(F)(F)F)c2)cc1	-30	0.0651 µM [falling, full curve, poor fit]	
